{
  "sequences": {"note": "Amino acid sequences for entries named in this document (tags omitted). Residues count along the entry.", "UniProt Q9FG77, 270-332 K284A": "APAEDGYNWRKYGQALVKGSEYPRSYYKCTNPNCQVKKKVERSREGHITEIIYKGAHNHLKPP", "UniProt Q9FG77, 270-332 K284Q": "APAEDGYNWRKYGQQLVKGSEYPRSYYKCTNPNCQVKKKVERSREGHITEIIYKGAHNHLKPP", "UniProt Q9FG77, 270-332 K284R": "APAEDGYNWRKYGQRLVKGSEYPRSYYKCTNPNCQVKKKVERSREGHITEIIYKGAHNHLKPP"},
  "source": "paper PMC7026264",
  "test_in_all_cases": "EMSA",
  "key": {"[1]": {"target": "AtWRKY2-N K284A (Arabidopsis) (UniProt Q9FG77)", "conditions": "EMSA: 25 mM HEPES pH 7.0, 100 mM NaCl, 5% glycerol, 6 pmol DNA in 6 ul, 4 C 20 min; recombinant protein; residues 270-332; protein details: C-terminal His; label: 5' Cy3 on strand 1"}, "[2]": {"target": "AtWRKY2-N K284Q (Arabidopsis) (UniProt Q9FG77)", "conditions": "EMSA: 25 mM HEPES pH 7.0, 100 mM NaCl, 5% glycerol, 6 pmol DNA in 6 ul, 4 C 20 min; recombinant protein; residues 270-332; protein details: C-terminal His; label: 5' Cy3 on strand 1"}, "[3]": {"target": "AtWRKY2-N K284R (Arabidopsis) (UniProt Q9FG77)", "conditions": "slight band; EMSA: 25 mM HEPES pH 7.0, 100 mM NaCl, 5% glycerol, 6 pmol DNA in 6 ul, 4 C 20 min; recombinant protein; residues 270-332; protein details: C-terminal His; label: 5' Cy3 on strand 1"}},
  "note": "For part of these data: A negative result means that nothing was seen under these conditions. For part of these data: At least one verdict rests on a figure or table, not on a statement of the authors. For part of these data: A weaker result is weaker than the reference pair of the same experiment.",
  "data": [
    {"sequence": "CGCCTTTGACCAGCGC (double strand) [W-box DNA for EMSA]", "values": [
      {"measurement": "binding result", "setting": "[1]", "result": "no binding"},
      {"measurement": "binding result", "setting": "[2]", "result": "no binding"},
      {"measurement": "binding result", "setting": "[3]", "result": "binds more weakly"}
    ]}
  ]
}
